These are yes or no findings as the source states them, for the method shown. Binding can be weak; no strength is given. Sequences can lack the tags named with a protein. For part of these data: In cells and extracts the contact can be indirect. Blank lines part the entries; values can stand above or below the binder they belong to.
Columns and labels:
[1] = biological target: strep tag II-tagged VRN5ΔVEL (Arabidopsis thaliana) (UniProt Q9LHF5); assay: cross-linking; XL-MS of the purified VRN5ΔVEL-PRC2 complex; 1-20 mM EDC, 60 min, room temperature; trypsin digest, LC-MS/MS, MeroX; both purified
[2] = biological target: strep tag II-tagged VRN5ΔVEL (Arabidopsis thaliana) (UniProt Q9LHF5); assay: co-purification of coexpressed proteins (Strep-tactin affinity, then size exclusion chromatography); five genes coexpressed in Sf9; bait N-terminal strep tag II VRN5ΔVEL on Strep-tactin superflow resin, 25 mM HEPES pH 8, 250 mM NaCl, eluted with 5 mM desthiobiotin, Superose 6 increase
[3] = biological target: GFP-VRN5 ΔFN3 (Arabidopsis thaliana) (UniProt Q9LHF5); assay: co-IP; GFP-tagged VEL protein (wt, mutant or chimera) coexpressed with all four HA-tagged PRC2 subunits (VRN2, SWN, FIE, MSI1) in HEK293T; GFP-trap 90 min at 4°C; lysis buffer 20 mM Tris pH 7.4, 200 mM NaCl, 10% glycerol, 0.2% Triton X-100; anti-HA blot
[4] = biological target: GFP-VRN5 ΔVEL (Arabidopsis thaliana) (UniProt Q9LHF5); assay: as above
[5] = biological target: GFP-VRN5 ΔPHDs (Arabidopsis thaliana) (UniProt Q9LHF5); assay: as above
[6] = biological target: GFP-VRN5 ΔN (Arabidopsis thaliana) (UniProt Q9LHF5); assay: as above

Sequences of proteins named here, by UniProt entry; tags and fusion partners are left off. A change or cut given only in a name is not applied to a line headed by its entry.
UniProt Q9LHF5: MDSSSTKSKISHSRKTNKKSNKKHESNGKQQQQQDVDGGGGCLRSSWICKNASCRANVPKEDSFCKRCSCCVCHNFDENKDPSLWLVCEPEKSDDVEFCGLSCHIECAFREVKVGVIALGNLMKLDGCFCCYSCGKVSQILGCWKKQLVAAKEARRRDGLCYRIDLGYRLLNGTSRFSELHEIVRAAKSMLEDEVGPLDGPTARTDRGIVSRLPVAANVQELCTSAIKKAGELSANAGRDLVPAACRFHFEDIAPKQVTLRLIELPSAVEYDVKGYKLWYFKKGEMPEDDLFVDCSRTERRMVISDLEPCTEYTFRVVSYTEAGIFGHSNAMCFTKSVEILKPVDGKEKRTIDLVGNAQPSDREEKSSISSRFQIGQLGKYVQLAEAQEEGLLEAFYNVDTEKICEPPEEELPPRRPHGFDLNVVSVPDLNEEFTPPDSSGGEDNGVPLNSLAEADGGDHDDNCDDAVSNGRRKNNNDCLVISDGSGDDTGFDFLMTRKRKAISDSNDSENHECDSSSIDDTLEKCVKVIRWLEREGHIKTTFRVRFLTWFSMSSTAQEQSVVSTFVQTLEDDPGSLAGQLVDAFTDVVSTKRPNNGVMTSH

B1: C-terminal HA-tagged MSI1(1-412) (domain or fragment, UniProt O22467 1-412)
chain: MGKDEEEMRGEIEERLINEEYKIWKKNTPFLYDLVITHALEWPSLTVEWLPDREEPSGKDYSVQKMILGTHTSESEPNYLMLAQVQLPLDDTESEARQYDDDRSEFGGFGCATGKVQIIQQINHDGEVNRARYMPQNPFIIATKTVNAEVYVFDYSKHPSKPPLDGACNPDLKLRGHSSEGYGLSWSKFKQGHLLSGSDDAQICLWDINATPKNKSLDAQQIFKAHEGVVEDVAWHLRHEYLFGSVGDDQYLLIWDLRSPSASKPVQSVVAHSMEVNCLAFNPFNEWVVATGSTDKTVKLFDLRKLSTALHTFDSHKEEVFQVGWNPKNETILASCCLGRRLMVWDLSRIDEEQTVEDAEDGPPELLFIHGGHTSKISDFSWNPCEDWVISSVAEDNILQIWQMAENIYHDE
binding [1]: binds
binding [2]: binds

B2: HA-tagged FIE (protein, UniProt Q9LT47 1-369)
chain: MSKITLGNESIVGSLTPSNKKSYKVTNRIQEGKKPLYAVVFNFLDARFFDVFVTAGGNRITLYNCLGDGAISALQSYADEDKEESFYTVSWACGVNGNPYVAAGGVKGIIRVIDVNSETIHKSLVGHGDSVNEIRTQPLKPQLVITASKDESVRLWNVETGICILIFAGAGGHRYEVLSVDFHPSDIYRFASCGMDTTIKIWSMKEFWTYVEKSFTWTDDPSKFPTKFVQFPVFTASIHTNYVDCNRWFGDFILSKSVDNEILLWEPQLKENSPGEGASDVLLRYPVPMCDIWFIKFSCDLHLSSVAIGNQEGKVYVWDLKSCPPVLITKLSHNQSKSVIRQTAMSVDGSTILACCEDGTIWRWDVITK
binding [3]: binds
binding [4]: binds
binding [5]: binds weakly

B3: HA-tagged SWN (protein, UniProt Q9ZSM8 1-856)
chain: MVTDDSNSSGRIKSHVDDDDDGEEEEDRLEGLENRLSELKRKIQGERVRSIKEKFEANRKKVDAHVSPFSSAASSRATAEDNGNSNMLSSRMRMPLCKLNGFSHGVGDRDYVPTKDVISASVKLPIAERIPPYTTWIFLDRNQRMAEDQSVVGRRQIYYEQHGGETLICSDSEEEPEPEEEKREFSEGEDSIIWLIGQEYGMGEEVQDALCQLLSVDASDILERYNELKLKDKQNTEEFSNSGFKLGISLEKGLGAALDSFDNLFCRRCLVFDCRLHGCSQPLISASEKQPYWSDYEGDRKPCSKHCYLQLKAVREVPETCSNFASKAEEKASEEECSKAVSSDVPHAAASGVSLQVEKTDIGIKNVDSSSGVEQEHGIRGKREVPILKDSNDLPNLSNKKQKTAASDTKMSFVNSVPSLDQALDSTKGDQGGTTDNKVNRDSEADAKEVGEPIPDNSVHDGGSSICQPHHGSGNGAIIIAEMSETSRPSTEWNPIEKDLYLKGVEIFGRNSCLIARNLLSGLKTCLDVSNYMRENEVSVFRRSSTPNLLLDDGRTDPGNDNDEVPPRTRLFRRKGKTRKLKYSTKSAGHPSVWKRIAGGKNQSCKQYTPCGCLSMCGKDCPCLTNETCCEKYCGCSKSCKNRFRGCHCAKSQCRSRQCPCFAAGRECDPDVCRNCWVSCGDGSLGEAPRRGEGQCGNMRLLLRQQQRILLGKSDVAGWGAFLKNSVSKNEYLGEYTGELISHHEADKRGKIYDRANSSFLFDLNDQYVLDAQRKGDKLKFANHSAKPNCYAKVMFVAGDHRVGIFANERIEASEELFYDYRYGPDQAPVWARKPEGSKKDDSAITHRRARKHQSH
binding [3]: binds
binding [6]: binds
binding [4]: binds
binding [5]: binds weakly

B5: HA-tagged VRN2(1-397) (domain or fragment, UniProt Q8W5B1 1-397)
chain: MCRQNCRAKSSPEEVISTDENLLIYCKPVRLYNIFHLRSLGNPSFLPRCLNYKIGAKRKRKSRSTGMVVFNYKDCNNTLQRTEVREDCSCPFCSMLCGSFKGLQFHLNSSHDLFEFEFKLLEEYQTVNVSVKLNSFIFEEEGSDDDKFEPFSLCSKPRKRRQRGGRNNTRRLKVCFLPLDSPSLANGTENGIALLNDGNRGLGYPEATELAGQFEMTSNIPPAIAHSSLDAGAKVILTTEAVVPATKTRKLSAERSEARSHLLLQKRQFYHSHRVQPMALEQVMSDRDSEDEVDDDVADFEDRQMLDDFVDVNKDEKQFMHLWNSFVRKQRVIADGHISWACEVFSRFYEKELHCYSSLFWCWRLFLIKLWNHGLVDSATINNCNTILENCRNTSVT
binding [1]: binds
binding [2]: binds

B7: HA-tagged FIE(1-360) (domain or fragment, UniProt Q9LT47 1-360)
chain: MSKITLGNESIVGSLTPSNKKSYKVTNRIQEGKKPLYAVVFNFLDARFFDVFVTAGGNRITLYNCLGDGAISALQSYADEDKEESFYTVSWACGVNGNPYVAAGGVKGIIRVIDVNSETIHKSLVGHGDSVNEIRTQPLKPQLVITASKDESVRLWNVETGICILIFAGAGGHRYEVLSVDFHPSDIYRFASCGMDTTIKIWSMKEFWTYVEKSFTWTDDPSKFPTKFVQFPVFTASIHTNYVDCNRWFGDFILSKSVDNEILLWEPQLKENSPGEGASDVLLRYPVPMCDIWFIKFSCDLHLSSVAIGNQEGKVYVWDLKSCPPVLITKLSHNQSKSVIRQTAMSVDGSTILACCEDGT
binding [2]: binds

The next lines start with the values.

binding [1]: binds
binding [2]: binds
B4: HA-tagged SWN(29-831) (domain or fragment, UniProt Q9ZSM8 29-831)
chain: LEGLENRLSELKRKIQGERVRSIKEKFEANRKKVDAHVSPFSSAASSRATAEDNGNSNMLSSRMRMPLCKLNGFSHGVGDRDYVPTKDVISASVKLPIAERIPPYTTWIFLDRNQRMAEDQSVVGRRQIYYEQHGGETLICSDSEEEPEPEEEKREFSEGEDSIIWLIGQEYGMGEEVQDALCQLLSVDASDILERYNELKLKDKQNTEEFSNSGFKLGISLEKGLGAALDSFDNLFCRRCLVFDCRLHGCSQPLISASEKQPYWSDYEGDRKPCSKHCYLQLKAVREVPETCSNFASKAEEKASEEECSKAVSSDVPHAAASGVSLQVEKTDIGIKNVDSSSGVEQEHGIRGKREVPILKDSNDLPNLSNKKQKTAASDTKMSFVNSVPSLDQALDSTKGDQGGTTDNKVNRDSEADAKEVGEPIPDNSVHDGGSSICQPHHGSGNGAIIIAEMSETSRPSTEWNPIEKDLYLKGVEIFGRNSCLIARNLLSGLKTCLDVSNYMRENEVSVFRRSSTPNLLLDDGRTDPGNDNDEVPPRTRLFRRKGKTRKLKYSTKSAGHPSVWKRIAGGKNQSCKQYTPCGCLSMCGKDCPCLTNETCCEKYCGCSKSCKNRFRGCHCAKSQCRSRQCPCFAAGRECDPDVCRNCWVSCGDGSLGEAPRRGEGQCGNMRLLLRQQQRILLGKSDVAGWGAFLKNSVSKNEYLGEYTGELISHHEADKRGKIYDRANSSFLFDLNDQYVLDAQRKGDKLKFANHSAKPNCYAKVMFVAGDHRVGIFANERIEASEELFYDYRYGPDQAPVW

binding [3]: binds
binding [6]: binds
binding [4]: binds
binding [5]: binds weakly
B6: HA-tagged VRN2 (protein, UniProt Q8W5B1 1-440)
chain: MCRQNCRAKSSPEEVISTDENLLIYCKPVRLYNIFHLRSLGNPSFLPRCLNYKIGAKRKRKSRSTGMVVFNYKDCNNTLQRTEVREDCSCPFCSMLCGSFKGLQFHLNSSHDLFEFEFKLLEEYQTVNVSVKLNSFIFEEEGSDDDKFEPFSLCSKPRKRRQRGGRNNTRRLKVCFLPLDSPSLANGTENGIALLNDGNRGLGYPEATELAGQFEMTSNIPPAIAHSSLDAGAKVILTTEAVVPATKTRKLSAERSEARSHLLLQKRQFYHSHRVQPMALEQVMSDRDSEDEVDDDVADFEDRQMLDDFVDVNKDEKQFMHLWNSFVRKQRVIADGHISWACEVFSRFYEKELHCYSSLFWCWRLFLIKLWNHGLVDSATINNCNTILENCRNTSVTNNNNNSVDHPSDSNTNNNNIVDHPNDIKNKNNVDNKDNNSRDK
